Laboratory results reported in paper doi:10.1101/2021.09.23.461563.
No constants are given. Whether binding was seen depends on the method and setting. Some binding calls cover weakened binding; strength is not graded here. Tags and fused reporters may be left off the sequences shown.

Target: T1, Untagged ErpQ_(19-343) (Borrelia burgdorferi strain B31) (UniProt Q9S035)
T1 sequence: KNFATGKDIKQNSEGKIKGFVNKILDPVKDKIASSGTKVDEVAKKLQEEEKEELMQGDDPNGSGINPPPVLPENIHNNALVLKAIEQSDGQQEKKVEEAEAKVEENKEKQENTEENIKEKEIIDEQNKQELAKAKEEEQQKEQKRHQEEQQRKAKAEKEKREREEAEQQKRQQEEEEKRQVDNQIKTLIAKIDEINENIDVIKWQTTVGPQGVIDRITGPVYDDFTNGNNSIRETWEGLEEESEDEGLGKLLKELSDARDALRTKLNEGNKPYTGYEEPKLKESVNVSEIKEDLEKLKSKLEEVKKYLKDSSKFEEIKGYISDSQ
Experiment: SPR

B1: C1s enzyme (activated form of human C1s) (enzyme, UniProt P09871 16-437; P09871 438-688)
chain 1: EPTMYGEILSPNYPQAYPSEVEKSWDIEVPEGYGIHLYFTHLDIELSENCAYDSVQIISGDTEEGRLCGQRSSNNPHSPIVEEFQVPYNKLQVIFKSDFSNEERFTGFAAYYVATDINECTDFVDVPCSHFCNNFIGGYFCSCPPEYFLHDDMKNCGVNCSGDVFTALIGEIASPNYPKPYPENSRCEYQIRLEKGFQVVVTLRREDFDVEAADSAGNCLDSLVFVAGDRQFGPYCGHGFPGPLNIETKSNALDIIFQTDLTGQKKGWKLRYHGDPMPCPKEDTPNSVWEPAKAKYVFRDVVQITCLDGFEVVEGRVGATSFYSTCQSNGKWSNSKLKCQPVDCGIPESIENGKVEDPESTLFGSVIRYTCEEPYYYMENGGGGEYHCAGNGSWVNEVLGPELPKCVPVCGVPREPFEEKQR
chain 2: IIGGSDADIKNFPWQVFFDNPWAGGALINEYWVLTAAHVVEGNREPTMYVGSTSVQTSRLAKSKMLTPEHVFIHPGWKLLEVPEGRTNFDNDIALVRLKDPVKMGPTVSPICLPGTSSDYNLMDGDLGLISGWGRTEKRDRAVRLKAARLPVAPLRKCKEVKVEKPTADAEAYVFTPNMICAGGEKGMDSCKGDSGGAFAVQDPNDKTKFYAAGLVSWGPQCGTYGLYTRVKNYVDWIMKTMQENSTPRED
Question: For B1, which binding is on record?
Answer: The binding was “binds”.
